From publication PMC12636167
These are yes or no findings as the source states them, for the method shown. Binding seen in cells or lysates may run through a third protein. Binding calls can cover weak binding; strength is not graded here.

Chains of the proteins cited; added tags and fusions are not shown. Lines headed by an entry give the natural chain unless they say otherwise; changes in a name come on top.
UniProt Q96PU5: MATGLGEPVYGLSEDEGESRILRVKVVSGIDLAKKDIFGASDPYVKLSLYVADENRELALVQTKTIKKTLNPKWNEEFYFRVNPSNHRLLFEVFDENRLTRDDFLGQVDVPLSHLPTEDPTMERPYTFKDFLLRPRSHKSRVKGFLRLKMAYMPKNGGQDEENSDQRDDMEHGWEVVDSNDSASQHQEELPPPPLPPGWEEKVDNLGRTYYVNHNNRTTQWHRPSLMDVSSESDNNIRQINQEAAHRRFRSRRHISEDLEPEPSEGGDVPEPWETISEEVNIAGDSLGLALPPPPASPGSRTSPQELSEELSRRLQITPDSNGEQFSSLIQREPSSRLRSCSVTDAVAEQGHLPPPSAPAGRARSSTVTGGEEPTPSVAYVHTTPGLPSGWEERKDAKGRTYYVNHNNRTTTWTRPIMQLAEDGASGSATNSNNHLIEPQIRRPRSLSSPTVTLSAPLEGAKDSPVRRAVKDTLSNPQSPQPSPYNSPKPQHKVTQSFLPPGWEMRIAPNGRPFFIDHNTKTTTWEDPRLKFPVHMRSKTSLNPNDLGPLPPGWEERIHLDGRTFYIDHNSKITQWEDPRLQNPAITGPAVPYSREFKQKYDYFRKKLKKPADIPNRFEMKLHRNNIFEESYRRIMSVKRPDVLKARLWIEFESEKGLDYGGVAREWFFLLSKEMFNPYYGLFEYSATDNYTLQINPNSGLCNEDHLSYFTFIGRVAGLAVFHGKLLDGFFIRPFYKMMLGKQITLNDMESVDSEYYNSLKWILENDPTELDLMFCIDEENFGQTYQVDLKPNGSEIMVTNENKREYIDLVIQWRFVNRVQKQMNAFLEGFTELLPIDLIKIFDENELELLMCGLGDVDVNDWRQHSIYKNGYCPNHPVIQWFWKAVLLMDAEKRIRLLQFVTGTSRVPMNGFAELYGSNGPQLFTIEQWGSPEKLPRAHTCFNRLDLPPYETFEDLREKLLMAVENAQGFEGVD

Biological target: T1, Stearoyl-CoA desaturase-1 (UniProt O00767)
T1 sequence: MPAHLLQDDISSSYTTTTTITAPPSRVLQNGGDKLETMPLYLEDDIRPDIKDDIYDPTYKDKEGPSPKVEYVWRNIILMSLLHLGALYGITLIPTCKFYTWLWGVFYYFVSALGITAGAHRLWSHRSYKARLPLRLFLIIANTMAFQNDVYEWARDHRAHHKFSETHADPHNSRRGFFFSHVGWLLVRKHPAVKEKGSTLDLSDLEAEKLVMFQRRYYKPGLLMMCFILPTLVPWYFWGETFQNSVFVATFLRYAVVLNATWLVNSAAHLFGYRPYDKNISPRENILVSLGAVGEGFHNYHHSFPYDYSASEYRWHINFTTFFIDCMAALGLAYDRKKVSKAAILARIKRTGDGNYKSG
Experiment: co-IP; HEK293T cells transfected with the indicated plasmids (HA-SCD, FLAG-NEDD4L or truncated NEDD4L); NP-40 lysis buffer; antibodies (SCD, HA, DYKDDDDK, NEDD4L) overnight at 4 °C, protein A/G magnetic beads, immunoblot; in one panel (Fig. 4H) cells were treated with 5 µg/ml B1, said to further facilitate the interaction

WW domain of NEDD4L (Δ154–617 aa) (from UniProt Q96PU5) (domain or fragment)
binding: binds
